What was measured:
[1] = test system: Axin2 accumulation in SW480 cells; assay: Axin2 384 immunofluorescence assay; format: cell-based; settings: Homo sapiens, SW480, 24 h, read-out: Axin2 384 IF EC50
[2] = test system: total β-catenin in SW480 colorectal cells; assay: Total β-catenin MSD 96-well plate assay for SW480 cells; settings: Homo sapiens, SW480, read-out: SW480-Total beta-catenin (TBC) IC50 IP

O=C(CCc1nc2ccccc2c(=O)[nH]1)N[C@H]1CC[C@H](c2nnc(-c3ccccc3F)o2)CC1 [Example 126, N-((1r,4r)-4-(5-(2-fluorophenyl)-1,3,4-oxadiazol-2-yl)cyclohexyl)-3-(4-oxo-3,4-dihydroquinazolin-2-yl)propanamide]
EC50 [1]: 2720 nM | IC50 [2]: 1020 nM

Reference: patent US9505749B2, “Quinazolinone compounds and derivatives thereof” (AMGEN INC., priority 2012, dated 2016)
